Experimental data from patent US20220153848A1.
These are yes or no findings as the source states them, for the method shown. Some binding calls cover weakened binding; strength is not graded here.

Protein sequences, listed by entry. Tags and fused reporters are not part of them. Lines headed by an entry give the natural chain unless they say otherwise; changes in a name come on top.
UniProt P08581: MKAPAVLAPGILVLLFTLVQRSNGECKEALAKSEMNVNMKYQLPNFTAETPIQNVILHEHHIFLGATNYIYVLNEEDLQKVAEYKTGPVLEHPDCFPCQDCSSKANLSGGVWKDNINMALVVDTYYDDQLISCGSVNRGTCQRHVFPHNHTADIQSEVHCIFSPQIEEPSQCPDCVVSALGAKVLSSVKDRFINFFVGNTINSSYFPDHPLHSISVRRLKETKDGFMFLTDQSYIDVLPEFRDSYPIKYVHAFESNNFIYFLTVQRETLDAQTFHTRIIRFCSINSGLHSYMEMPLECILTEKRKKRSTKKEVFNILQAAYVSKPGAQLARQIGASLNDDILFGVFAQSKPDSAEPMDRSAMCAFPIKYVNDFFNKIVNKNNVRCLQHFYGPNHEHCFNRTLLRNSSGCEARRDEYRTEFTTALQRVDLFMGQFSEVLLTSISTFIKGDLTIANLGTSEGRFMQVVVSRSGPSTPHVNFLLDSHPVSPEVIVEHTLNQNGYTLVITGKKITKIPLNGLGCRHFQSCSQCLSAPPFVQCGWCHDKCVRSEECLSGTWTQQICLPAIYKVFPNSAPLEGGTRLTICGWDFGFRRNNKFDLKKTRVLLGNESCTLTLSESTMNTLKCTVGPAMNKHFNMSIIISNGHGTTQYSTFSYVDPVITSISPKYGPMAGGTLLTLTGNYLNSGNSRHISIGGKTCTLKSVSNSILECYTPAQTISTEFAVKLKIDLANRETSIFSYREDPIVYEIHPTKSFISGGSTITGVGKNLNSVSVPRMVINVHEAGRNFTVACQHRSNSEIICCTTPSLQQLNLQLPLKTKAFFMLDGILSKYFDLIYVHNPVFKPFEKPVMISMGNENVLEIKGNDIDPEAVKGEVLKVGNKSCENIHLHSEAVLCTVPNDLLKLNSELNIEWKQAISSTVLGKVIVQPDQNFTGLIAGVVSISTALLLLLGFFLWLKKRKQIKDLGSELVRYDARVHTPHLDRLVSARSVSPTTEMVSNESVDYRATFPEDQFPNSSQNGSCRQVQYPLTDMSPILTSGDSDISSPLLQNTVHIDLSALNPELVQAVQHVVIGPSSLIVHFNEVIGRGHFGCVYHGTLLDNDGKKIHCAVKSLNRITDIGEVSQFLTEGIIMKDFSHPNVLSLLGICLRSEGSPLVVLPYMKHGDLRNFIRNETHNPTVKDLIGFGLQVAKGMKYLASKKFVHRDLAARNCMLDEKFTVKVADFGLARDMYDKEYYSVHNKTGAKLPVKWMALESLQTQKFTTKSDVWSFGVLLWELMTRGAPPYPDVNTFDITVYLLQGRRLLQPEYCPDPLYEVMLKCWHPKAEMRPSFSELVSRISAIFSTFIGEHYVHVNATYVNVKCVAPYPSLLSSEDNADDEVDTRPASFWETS

How the values were obtained:
[1] = molecular target: c-MET on the surface of HT29 and HCT-116 human colon cancer cells (human) (UniProt P08581); experiment: flow cytometry on HT29 cells
[2] = molecular target: c-MET on the surface of HT29 and HCT-116 human colon cancer cells (human) (UniProt P08581); experiment: flow cytometry on HCT-116 cells
[3] = molecular target: c-MET on the surface of HT29 and HCT-116 human colon cancer cells (human) (UniProt P08581); experiment: flow cytometry on HT29 and HCT-116 cells, fold MFI over secondary-antibody only control

Measured: binding

B1: anti-c-MET monoclonal antibody ABT-700 (parental monoclonal antibody of A49MI-Duobody-TriNKET-ABT-700) (antibody, human IgG1, kappa, V domains shown)
VH: QVQLVQSGAEVKKPGASVKVSCKASGYIFTAYTMHWVRQAPGQGLEWMGWIKPNNGLANYAQKFQGRVTMTRDTSISTAYMELSRLRSDDTAVYYCARSEITTEFDYWGQGTLVTVSS
VL: DIVMTQSPDSLAVSLGERATINCKSSESVDSYANSFLHWYQQKPGQPPKLLIYRASTRESGVPDRFSGSGSGTDFTLTISSLQAEDVAVYYCQQSKEDPLTFGGGTKVEIKR
binds: all assays above
